Source: publication PMC9710844
Like-named read-outs stand apart in the source and are kept apart here. These are yes or no findings as the source states them, for the method shown. Binding seen in cells or lysates may run through a third protein. Some binding calls cover weakened binding; strength is not graded here. Where a sequence is shown, tags or fusion partners need not be part of it.

Protein sequences, listed by entry. Tags and fused reporters are not part of them.
UniProt Q86WV6: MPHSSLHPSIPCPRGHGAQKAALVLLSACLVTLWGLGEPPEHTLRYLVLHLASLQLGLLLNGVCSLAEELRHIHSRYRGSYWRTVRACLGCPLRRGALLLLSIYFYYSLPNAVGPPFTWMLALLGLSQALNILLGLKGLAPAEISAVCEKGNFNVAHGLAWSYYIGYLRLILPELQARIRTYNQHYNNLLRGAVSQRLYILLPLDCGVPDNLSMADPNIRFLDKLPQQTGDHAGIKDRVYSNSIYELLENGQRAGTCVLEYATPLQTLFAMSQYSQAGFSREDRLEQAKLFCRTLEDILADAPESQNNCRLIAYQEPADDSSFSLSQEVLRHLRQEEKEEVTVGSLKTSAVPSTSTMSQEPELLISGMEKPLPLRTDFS
UniProt Q8N884: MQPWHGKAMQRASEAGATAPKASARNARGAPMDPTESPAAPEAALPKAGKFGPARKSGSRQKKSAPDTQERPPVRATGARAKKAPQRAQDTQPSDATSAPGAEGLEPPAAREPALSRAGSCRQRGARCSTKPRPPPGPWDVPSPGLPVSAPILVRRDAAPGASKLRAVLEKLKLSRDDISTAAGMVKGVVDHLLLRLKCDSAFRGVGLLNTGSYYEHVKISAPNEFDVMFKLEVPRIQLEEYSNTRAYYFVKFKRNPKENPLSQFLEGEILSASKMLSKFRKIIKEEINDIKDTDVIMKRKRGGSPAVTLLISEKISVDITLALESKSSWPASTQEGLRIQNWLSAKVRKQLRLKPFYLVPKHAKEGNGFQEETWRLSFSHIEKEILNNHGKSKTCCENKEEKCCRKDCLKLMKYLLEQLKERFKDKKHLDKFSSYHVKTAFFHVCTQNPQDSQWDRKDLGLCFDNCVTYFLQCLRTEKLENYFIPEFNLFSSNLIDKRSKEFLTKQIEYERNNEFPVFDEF

T1: Flag-DDOST, full length (human) (UniProt P39656)
T1 sequence: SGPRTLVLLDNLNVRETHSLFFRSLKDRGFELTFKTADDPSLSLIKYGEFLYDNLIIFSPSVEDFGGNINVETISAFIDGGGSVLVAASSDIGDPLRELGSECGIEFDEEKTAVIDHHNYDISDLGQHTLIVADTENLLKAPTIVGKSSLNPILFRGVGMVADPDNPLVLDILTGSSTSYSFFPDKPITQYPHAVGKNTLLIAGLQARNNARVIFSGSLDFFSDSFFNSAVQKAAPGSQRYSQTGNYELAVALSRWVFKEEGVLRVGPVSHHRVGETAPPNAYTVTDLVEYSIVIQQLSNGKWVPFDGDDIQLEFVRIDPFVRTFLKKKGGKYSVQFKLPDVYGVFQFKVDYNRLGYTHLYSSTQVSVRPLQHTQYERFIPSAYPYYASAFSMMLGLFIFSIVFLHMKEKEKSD


Key:
Experiment in all cases: co-IP; HEK293T cells transfected with Flag- and HA-tagged plasmids; NP-40 lysis buffer, Protein G Sepharose and the indicated antibody or control IgG, 3 hours; immunoblot
[1] = target: T1, Flag-DDOST, full length (human)
Flag-MITA (human) = Flag-MITA (human) (UniProt Q86WV6)
[2] = target: T1, Flag-DDOST, full length (human); remark: listed apart in the source

binding [1]	Molecule	further results
binds	HA-MITA, full length (from UniProt Q86WV6 1-379)	
no binding	HA-cGAS (cyclic GMP-AMP synthase) (from UniProt Q8N884 1-522)	
	HA-STT3A (STT3 oligosaccharyltransferase complex catalytic subunit A) (protein, UniProt P46977 1-705) MTKFGFLRLSYEKQDTLLKLLILSMAAVLSFSTRLFAVLRFESVIHEFDPYFNYRTTRFLAEEGFYKFHNWFDDRAWYPLGRIIGGTIYPGLMITSAAIYHVLHFFHITIDIRNVCVFLAPLFSSFTTIVTYHLTKELKDAGAGLLAAAMIAVVPGYISRSVAGSYDNEGIAIFCMLLTYYMWIKAVKTGSICWAAKCALAYFYMVSSWGGYVFLINLIPLHVLVLMLTGRFSHRIYVAYCTVYCLGTILSMQISFVGFQPVLSSEHMAAFGVFGLCQIHAFVDYLRSKLNPQQFEVLFRSVISLVGFVLLTVGALLMLTGKISPWTGRFYSLLDPSYAKNNIPIIASVSEHQPTTWSSYYFDLQLLVFMFPVGLYYCFSNLSDARIFIIMYGVTSMYFSAVMVRLMLVLAPVMCILSGIGVSQVLSTYMKNLDISRPDKKSKKQQDSTYPIKNEVASGMILVMAFFLITYTFHSTWVTSEAYSSPSIVLSARGGDGSRIIFDDFREAYYWLRHNTPEDAKVMSWWDYGYQITAMANRTILVDNNTWNNTHISRVGQAMASTEEKAYEIMRELDVSYVLVIFGGLTGYSSDDINKFLWMVRIGGSTDTGKHIKENDYYTPTGEFRVDREGSPVLLNCLMYKMCYYRFGQVYTEAKRPPGFDRVRNAEIGNKDFELDVLEEAYTTEHWLVRIYKVKDLDNRGLSRT	binding (Flag-MITA (human)): binds
	HA-TBK1 (protein, UniProt Q9UHD2 1-729) MQSTSNHLWLLSDILGQGATANVFRGRHKKTGDLFAIKVFNNISFLRPVDVQMREFEVLKKLNHKNIVKLFAIEEETTTRHKVLIMEFCPCGSLYTVLEEPSNAYGLPESEFLIVLRDVVGGMNHLRENGIVHRDIKPGNIMRVIGEDGQSVYKLTDFGAARELEDDEQFVSLYGTEEYLHPDMYERAVLRKDHQKKYGATVDLWSIGVTFYHAATGSLPFRPFEGPRRNKEVMYKIITGKPSGAISGVQKAENGPIDWSGDMPVSCSLSRGLQVLLTPVLANILEADQEKCWGFDQFFAETSDILHRMVIHVFSLQQMTAHKIYIHSYNTATIFHELVYKQTKIISSNQELIYEGRRLVLEPGRLAQHFPKTTEENPIFVVSREPLNTIGLIYEKISLPKVHPRYDLDGDASMAKAITGVVCYACRIASTLLLYQELMRKGIRWLIELIKDDYNETVHKKTEVVITLDFCIRNIEKTVKVYEKLMKINLEAAELGEISDIHTKLLRLSSSQGTIETSLQDIDSRLSPGGSLADAWAHQEGTHPKDRNVEKLQVLLNCMTEIYYQFKKDKAERRLAYNEEQIHKFDKQKLYYHATKAMTHFTDECVKKYEAFLNKSEEWIRKMLHLRKQLLSLTNQCFDIEEEVSKYQEYTNELQETLPQKMFTASSGIKHTMTPIYPSSNTLVEMTLGMKKLKEEMEGVVKELAENNHILERFGSLTMDGGLRNVDCL	binding [2]: no binding
